Some of the results follow. Construct or isoform of the protein are uncertain.
Biological target: T1, ETS1 (UniProt P14921)
T1 sequence: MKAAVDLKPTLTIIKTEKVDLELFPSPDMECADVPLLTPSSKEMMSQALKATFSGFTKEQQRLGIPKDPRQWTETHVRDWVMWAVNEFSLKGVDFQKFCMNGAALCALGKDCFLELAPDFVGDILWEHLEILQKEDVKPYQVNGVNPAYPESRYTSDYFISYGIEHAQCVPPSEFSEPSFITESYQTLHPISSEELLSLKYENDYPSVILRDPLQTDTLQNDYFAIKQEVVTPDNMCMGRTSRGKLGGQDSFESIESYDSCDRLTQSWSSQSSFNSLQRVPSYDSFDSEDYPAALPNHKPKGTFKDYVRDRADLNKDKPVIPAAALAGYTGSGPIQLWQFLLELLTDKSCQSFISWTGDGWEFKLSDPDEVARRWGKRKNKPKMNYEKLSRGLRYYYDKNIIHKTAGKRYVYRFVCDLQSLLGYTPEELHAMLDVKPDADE
Experiment: DAPPL (digital affinity profiling via proximity ligation, sequencing)
Details: 10 mM Tris-HCl pH 7.5, 50 mM NaCl, 1 mM DTT, 4% glycerol, room temperature, 30 min; GST-TFs on glutathione beads, 16-mer random dsDNA library, 0.1% …; high values mean tight binding; double strand, one strand shown; scale: fold enrichment (6-mer frequency, TF over GST control)

Sequence	binding signal
TCTGGA	1.02
TTCGGC	1.12
CATACC	1.11
CGGTTT	1.23
CTTGAA	1.1
CCTTCT	1.59
ATCAAC	1.13
CCGAGC	1.1
CACTGT	1.17
AAAACG	1.2
TAAAGC	1.14
AGATGT	0.984
CTCGCG	1.37
TTACGG	1.29
TGCACA	1.06
CGCGTT	1.12
CGCCCA	1.04
GCCCCC	1.14
ACGAAT	1.11
AAAGGC	0.934

Sequence	binding signal
TATCCA	1.31
GTAGCT	1.12
TGCCAC	1.23
CAGCCT	1.12
ACTAAT	1.23
TACGCG	1.1
AAAGCC	1.05
TGATAA	0.987
ATGTGC	1.07
TCCACT	1.47
GCAACC	1.05
CAAAAG	0.97
TCCTAG	1.26
TTGAGC	1.01
TTCACG	1.44
TTGGGG	1.2
TAGACT	1.04
TGGCGA	1.01
GCGCGC	1.07
ATGCTC	1.43

In a second layout: results already given
TCCACT
  binding signal = 1.47
GCAACC
  binding signal = 1.05

From PMC7862700
